{"sequences": {"note": "Amino acid sequences for entries named in this document (tags omitted). A change or cut given only in a name is not applied to a line headed by its entry. Chains listed by the source or under a name are the forms on record and can include a tag or linker.", "UniProt Q9Y4G2": "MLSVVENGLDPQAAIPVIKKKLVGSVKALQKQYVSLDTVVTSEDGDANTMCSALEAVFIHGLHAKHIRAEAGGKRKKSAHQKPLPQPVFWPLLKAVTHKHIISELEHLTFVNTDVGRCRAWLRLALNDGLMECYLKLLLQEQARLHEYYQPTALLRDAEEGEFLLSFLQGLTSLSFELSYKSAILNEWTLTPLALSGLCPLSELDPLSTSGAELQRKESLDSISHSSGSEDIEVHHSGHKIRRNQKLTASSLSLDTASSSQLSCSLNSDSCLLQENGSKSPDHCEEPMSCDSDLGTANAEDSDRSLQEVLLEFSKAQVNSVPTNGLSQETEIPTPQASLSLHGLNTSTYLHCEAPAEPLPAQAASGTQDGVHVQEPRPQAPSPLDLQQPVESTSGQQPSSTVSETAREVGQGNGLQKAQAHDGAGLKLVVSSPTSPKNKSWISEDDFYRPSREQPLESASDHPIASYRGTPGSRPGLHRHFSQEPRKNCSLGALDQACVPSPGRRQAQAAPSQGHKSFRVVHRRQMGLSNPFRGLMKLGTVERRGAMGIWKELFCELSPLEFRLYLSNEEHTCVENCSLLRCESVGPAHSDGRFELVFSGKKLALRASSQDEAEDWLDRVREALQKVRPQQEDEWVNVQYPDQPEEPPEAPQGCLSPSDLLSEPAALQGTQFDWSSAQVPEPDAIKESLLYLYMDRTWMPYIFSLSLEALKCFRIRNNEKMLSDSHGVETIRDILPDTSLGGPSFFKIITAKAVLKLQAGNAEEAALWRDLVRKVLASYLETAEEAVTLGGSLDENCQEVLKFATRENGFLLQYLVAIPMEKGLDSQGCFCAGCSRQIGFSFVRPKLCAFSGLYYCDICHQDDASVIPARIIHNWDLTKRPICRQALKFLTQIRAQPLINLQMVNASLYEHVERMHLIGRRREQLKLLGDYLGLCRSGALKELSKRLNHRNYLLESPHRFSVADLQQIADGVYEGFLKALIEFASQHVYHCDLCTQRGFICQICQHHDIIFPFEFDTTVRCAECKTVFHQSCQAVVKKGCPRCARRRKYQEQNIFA", "PLEKHM1 (HRR→A) (construct of Fig. S3 b–d not shown) (Q9Y4G2, form named)": "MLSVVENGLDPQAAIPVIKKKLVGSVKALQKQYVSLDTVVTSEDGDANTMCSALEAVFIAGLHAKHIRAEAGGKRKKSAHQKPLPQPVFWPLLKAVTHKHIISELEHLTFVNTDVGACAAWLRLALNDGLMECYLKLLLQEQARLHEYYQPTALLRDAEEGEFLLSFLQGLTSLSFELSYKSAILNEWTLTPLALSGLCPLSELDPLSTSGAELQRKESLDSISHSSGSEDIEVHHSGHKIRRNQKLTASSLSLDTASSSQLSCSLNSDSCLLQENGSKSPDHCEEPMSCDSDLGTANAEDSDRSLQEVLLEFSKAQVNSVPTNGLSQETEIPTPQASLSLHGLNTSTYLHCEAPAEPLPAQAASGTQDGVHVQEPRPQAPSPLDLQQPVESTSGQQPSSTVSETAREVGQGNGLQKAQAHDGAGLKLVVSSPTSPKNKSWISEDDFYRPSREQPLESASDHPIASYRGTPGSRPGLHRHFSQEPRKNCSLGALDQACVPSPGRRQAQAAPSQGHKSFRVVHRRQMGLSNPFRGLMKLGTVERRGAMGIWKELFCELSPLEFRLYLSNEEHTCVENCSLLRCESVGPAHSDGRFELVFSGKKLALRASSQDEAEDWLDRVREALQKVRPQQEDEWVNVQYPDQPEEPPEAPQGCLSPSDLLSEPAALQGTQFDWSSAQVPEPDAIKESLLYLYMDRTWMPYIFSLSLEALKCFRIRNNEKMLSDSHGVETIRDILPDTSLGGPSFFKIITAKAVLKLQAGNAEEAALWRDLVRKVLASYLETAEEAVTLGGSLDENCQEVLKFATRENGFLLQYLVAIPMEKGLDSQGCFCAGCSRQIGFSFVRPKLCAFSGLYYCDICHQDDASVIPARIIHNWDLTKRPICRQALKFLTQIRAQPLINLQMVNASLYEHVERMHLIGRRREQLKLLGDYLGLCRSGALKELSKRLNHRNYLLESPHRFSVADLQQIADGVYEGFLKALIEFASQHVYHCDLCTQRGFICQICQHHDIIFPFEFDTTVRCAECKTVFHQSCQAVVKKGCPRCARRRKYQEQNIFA"}, "source": "paper PMC5379943", "binders": {"B1": {"name": "Vps39 (protein, UniProt Q96JC1 1-886)", "chain": "MHDAFEPVPILEKLPLQIDCLAAWEEWLLVGTKQGHLLLYRIRKDVVPADVASPESGSCNRFEVTLEKSNKNFSKKIQQIHVVSQFKILVSLLENNIYVHDLLTFQQITTVSKAKGASLFTCDLQHTETGEEVLRMCVAVKKKLQLYFWKDREFHELQGDFSVPDVPKSMAWCENSICVGFKRDYYLIRVDGKGSIKELFPTGKQLEPLVAPLADGKVAVGQDDLTVVLNEEGICTQKCALNWTDIPVAMEHQPPYIIAVLPRYVEIRTFEPRLLVQSIELQRPRFITSGGSNIIYVASNHFVWRLIPVPMATQIQQLLQDKQFELALQLAEMKDDSDSEKQQQIHHIKNLYAFNLFCQKRFDESMQVFAKLGTDPTHVMGLYPDLLPTDYRKQLQYPNPLPVLSGAELEKAHLALIDYLTQKRSQLVKKLNDSDHQSSTSPLMEGTPTIKSKKKLLQIIDTTLLKCYLHTNVALVAPLLRLENNHCHIEESEHVLKKAHKYSELIILYEKKGLHEKALQVLVDQSKKANSPLKGHERTVQYLQHLGTENLHLIFSYSVWVLRDFPEDGLKIFTEDLPEVESLPRDRVLGFLIENFKGLAIPYLEHIIHVWEETGSRFHNCLIQLYCEKVQGLMKEYLLSFPAGKTPVPAGEEEGELGEYRQKLLMFLEISSYYDPGRLICDFPFDGLLEERALLLGRMGKHEQALFIYVHILKDTRMAEEYCHKHYDRNKDGNKDVYLSLLRMYLSPPSIHCLGPIKLELLEPKANLQAALQVLELHHSKLDTTKALNLLPANTQINDIRIFLEKVLEENAQKKRFNQVLKNLLHAEFLRVQEERILHQQVKCIITEEKVCMVCKKKIGNSAFARYPNGVVVHYFCSKEVNPADT"}, "B2": {"name": "Vps18 (protein, UniProt Q9P253 1-973)", "chain": "MASILDEYENSLSRSAVLQPGCPSVGIPHSGYVNAQLEKEVPIFTKQRIDFTPSERITSLVVSSNQLCMSLGKDTLLRIDLGKANEPNHVELGRKDDAKVHKMFLDHTGSHLLIALSSTEVLYVNRNGQKVRPLARWKGQLVESVGWNKALGTESSTGPILVGTAQGHIFEAELSASEGGLFGPAPDLYFRPLYVLNEEGGPAPVCSLEAERGPDGRSFVIATTRQRLFQFIGRAAEGAEAQGFSGLFAAYTDHPPPFREFPSNLGYSELAFYTPKLRSAPRAFAWMMGDGVLYGALDCGRPDSLLSEERVWEYPEGVGPGASPPLAIVLTQFHFLLLLADRVEAVCTLTGQVVLRDHFLEKFGPLKHMVKDSSTGQLWAYTERAVFRYHVQREARDVWRTYLDMNRFDLAKEYCRERPDCLDTVLAREADFCFRQRRYLESARCYALTQSYFEEIALKFLEARQEEALAEFLQRKLASLKPAERTQATLLTTWLTELYLSRLGALQGDPEALTLYRETKECFRTFLSSPRHKEWLFASRASIHELLASHGDTEHMVYFAVIMQDYERVVAYHCQHEAYEEALAVLARHRDPQLFYKFSPILIRHIPRQLVDAWIEMGSRLDARQLIPALVNYSQGGEVQQVSQAIRYMEFCVNVLGETEQAIHNYLLSLYARGRPDSLLAYLEQAGASPHRVHYDLKYALRLCAEHGHHRACVHVYKVLELYEEAVDLALQVDVDLAKQCADLPEEDEELRKKLWLKIARHVVQEEEDVQTAMACLASCPLLKIEDVLPFFPDFVTIDHFKEAICSSLKAYNHHIQELQREMEEATASAQRIRRDLQELRGRYGTVEPQDKCATCDFPLLNRPFYLFLCGHMFHADCLLQAVRPGLPAYKQARLEELQRKLGAAPPPAKGSARAKEAEGGAATAGPSREQLKADLDELVAAECVYCGELMIRSIDRPFIDPQRYEEEQLSWL"}, "B3": {"name": "Vps39 (construct of the co-precipitations not shown) (protein, UniProt Q96JC1 1-886)", "chain": "B1 chain"}, "B4": {"name": "Vps41, P49754 1-854 (protein)", "chain": "MAEAEEQETGSLEESTDESEEEESEEEPKLKYERLSNGVTEILQKDAASCMTVHDKFLALGTHYGKVYLLDVQGNITQKFDVSPVKINQISLDESGEHMGVCSEDGKVQVFGLYSGEEFHETFDCPIKIIAVHPHFVRSSCKQFVTGGKKLLLFERSWMNRWKSAVLHEGEGNIRSVKWRGHLIAWANNMGVKIFDIISKQRITNVPRDDISLRPDMYPCSLCWKDNVTLIIGWGTSVKVCSVKERHASEMRDLPSRYVEIVSQFETEFYISGLAPLCDQLVVLSYVKEISEKTEREYCARPRLDIIQPLSETCEEISSDALTVRGFQENECRDYHLEYSEGESLFYIVSPRDVVVAKERDQDDHIDWLLEKKKYEEALMAAEISQKNIKRHKILDIGLAYINHLVERGDYDIAARKCQKILGKNAALWEYEVYKFKEIGQLKAISPYLPRGDPVLKPLIYEMILHEFLESDYEGFATLIREWPGDLYNNSVIVQAVRDHLKKDSQNKTLLKTLAELYTYDKNYGNALEIYLTLRHKDVFQLIHKHNLFSSIKDKIVLLMDFDSEKAVDMLLDNEDKISIKKVVEELEDRPELQHVYLHKLFKRDHHKGQRYHEKQISLYAEYDRPNLLPFLRDSTHCPLEKALEICQQRNFVEETVYLLSRMGNSRSALKMIMEELHDVDKAIEFAKEQDDGELWEDLILYSIDKPPFITGLLNNIGTHVDPILLIHRIKEGMEIPNLRDSLVKILQDYNLQILLREGCKKILVADSLSLLKKMHRTQMKGVLVDEENICESCLSPILPSDAAKPFSVVVFHCRHMFHKECLPMPSMNSAAQFCNICSAKNRGPGSAILEMKK"}}, "key": {"full-length PLEKHM1": {"target": "full-length PLEKHM1 (UniProt Q9Y4G2)", "experiment": "two-hybrid; GAL4-AD and GAL4-BD fusions co-transformed in S. cerevisiae Gold or AH109; growth on -Leu-Trp-His medium, 30°C"}, "[1]": {"target": "PLEKHM1 (HRR→A) (construct of Fig. S3 b–d not shown) (UniProt Q9Y4G2)", "experiment": "co-IP; Fig. S3 d; PLEKHM1 WT or HRR→A as bait; details not shown"}, "[2]": {"target": "PLEKHM1 (WT; construct of Fig. S1 b–e and Fig. S3 d not shown) (UniProt Q9Y4G2)", "experiment": "co-IP; Fig. S3 d; PLEKHM1 WT or HRR→A as bait; details not shown"}, "FLAG-PLEKHM1 (WT)": {"target": "FLAG-PLEKHM1 (WT) (UniProt Q9Y4G2)", "experiment": "co-IP; HEK293T cells treated with control- or Arl8b-siRNA and expressing FLAG-PLEKHM1; anti-FLAG antibody resin; immunoblot"}, "[3]": {"target": "full-length PLEKHM1, Q9Y4G2", "experiment": "two-hybrid; GAL4-AD and GAL4-BD fusions co-transformed in S. cerevisiae Gold or AH109; growth on -Leu-Trp-His medium, 30°C", "conditions": "remark: other sources report otherwise"}}, "note": "No constants are given. Whether binding was seen depends on the method and setting. For part of these data: In cells and extracts the contact can be indirect. Some results given as binding are weak or reduced against the parent protein; the word gives no strength.", "data": [{"binder": "B1", "values": [{"measurement": "binding", "setting": "full-length PLEKHM1", "result": "binds"}]}, {"binder": "B2", "values": [{"measurement": "binding", "setting": "full-length PLEKHM1", "result": "binds weakly"}]}, {"binder": "B3", "values": [{"measurement": "binding", "setting": "[1]", "result": "binds"}, {"measurement": "binding", "setting": "[2]", "result": "binds"}, {"measurement": "binding", "setting": "FLAG-PLEKHM1 (WT)", "result": "binds"}]}, {"binder": "B4", "values": [{"measurement": "binding", "setting": "[3]", "result": "no binding"}]}]}
